System: single-stranded miR-145
Test: Isothermal titration calorimetry (ITC), Waters Nano-ITC
Format: binding
Settings: Multiple Sites model
Source text: Isothermal titration calorimetry (ITC) utilizes the principle of power compensation to accurately obtain the enthalpy change of intermolecular interactions within a broad concentration range in the system through a single concentration scan. It measures the heat change during binding and provides the complete thermodynamic characteristics of nucleic acid-ligand interactions. Quantifying the thermodynamic properties and energy of the complex is essential for analyzing the molecular basis of the interaction between the microRNA miR-145 and the compound. The present invention uses the Waters Nano-ITC calorimeter to in vitro verify the nucleic acid-small molecule interactions.
The experimental process involves placing 300µL of a 50µM single-stranded miR-145 solution in a temperaturecontrolled sample chamber, and using small molecule A-3-6 (i.e., the 2-phenyl-N-(1H-pyrrolo[2,3-c]pyridine-5-yl)acetamide obtained in Example 9) as the ligand in a 50µL, 500µM concentration, which is gradually injected (or titrated) into the sample chamber. The heat change is measured by comparing the sample chamber with a reference chamber, showing either an endothermic or exothermic peak. The interaction pattern between the two reactants is fitted using the software provided by the instrument, and it directly calculates the reaction binding enthalpy (ΔH, kJ/mol), reaction binding entropy (ΔS, J/(mol·K)), number of binding sites (n), and binding equilibrium constant (Ka, M), obtaining the kinetic data. […] The calculated number of binding sites (nSite) for A-3-6 with miR-145 solution are n1=3 and n2=1.8, with Kd1=7.017E-8 and Kd2=7.544E-9, ΔH1=-69.08 and ΔH2=-137.2, ΔS1=-9.474E1 and ΔS2=-3.048E2.

O=C(Cc1ccccc1)Nc1cc2cc[nH]c2cn1 [Compound A-3-6, 2-Phenyl-N-(1H-Pyrrolo[2,3-c]pyridin-5-yl)acetamide] was tested, and the “number of binding sites (nSite) n1” value (500µM ligand titrated into 50µM miR-145, site 1) was 3, the “number of binding sites (nSite) n2” value (500µM ligand titrated into 50µM miR-145, site 2) was 1.8 and the “ΔH1 (reaction binding enthalpy)” value (site 1) was -16.51 kcal/mol. For the same compound, the “ΔS1 (reaction binding entropy)” value (site 1) was -9.474E1 J/(mol·K), the “ΔH2 (reaction binding enthalpy)” value (site 2) was -32.79 kcal/mol and the “ΔS2 (reaction binding entropy)” value (site 2) was -3.048E2 J/(mol·K).

— patent publication EP4635953A1, “PYRROLOPYRIDINE DERIVATIVE, AND PHARMACEUTICAL COMPOSITION THEREOF AND USE THEREOF” (Iregene Therapeutics Co., Ltd, priority 2022, dated 2024)
